Source: patent US8426179B2, “Synthetic peptide and peptide conjugates and related tissue coupling methods via transglutaminase enzyme” (priority 2007, dated 2013)
Not every detail of the peptide structures is certain; ends, links or a residue may be inferred. Residues, ends and D or L forms follow the SMILES beside them. *: point of attachment. X1 = C[C@]12CCC(=O)C=C1CC[C@@H]1[C@@H]2[C@@H](O)C[C@@]2(C)[C@H]1CC[C@]2(O)C(=O)COC(=O)CCC(=O)*

Legend:
[1] = system: articular surface of cartilage; assay: Coupling of hydrocortisone prodrugs to the articular surface of cartilage via tTG; assay type: biochemical, bovine; conditions: for immunofluorescence on articular surface (anti-hydrocortisone): 1.0 mM
meniscus = assay: Immobilization of TRIP-C on meniscus via tTG; assay type: biochemical, bovine; conditions: 1.0 mM with tTG

C[C@]12CCC(=O)C=C1CC[C@@H]1[C@@H]2[C@@H](O)C[C@@]2(C)[C@H]1CC[C@]2(O)C(=O)COC(=O)CCC(=O)NCC(=O)N[C@@H](Cc1ccccc1)C(=O)N[C@@H](CCCCN)C(=O)NCC(=O)O [TRIP-C, Hydrocortisone-GFKG prodrug] (X1-GFKG-OH)
bound hydrocortisone, TRIP-C compared with TRIP-PC ([1]; 1.0 mM prodrug with tTG, immunohistochemistry and quantification): no detectable difference in bound hydrocortisone | amount of hydrocortisone on the tissue surface (coupled prodrug) ([1]; 1.0 mM prodrug, 1 U/mL tTG, Buffer 3, 60 min at 37° C.): 0.0187±0.0035 nmoles/mg of tissue | immunofluorescence on articular surface (anti-hydrocortisone) ([1]; in the absence of tTG): no immunofluorescence was detected | immunofluorescence on articular surface (anti-hydrocortisone) ([1]; in the presence of tTG): intense immunofluorescence on the tissue surface | concentration dependence of hydrocortisone bound to the tissue ([1]; 0.1 to 2.0 mM, 1 hour, with tTG): increased in a linear fashion between 0.1 mM and 1 mM but did not increase further between 1.0 and 2.0 mM | distance from the articular surface within which prodrug was detected ([1]; coupled via tTG): ≤ 30 μm | nonspecific adsorption, hydrocortisone detected on the tissue surface ([1]; in the absence of tTG): minimal amount of hydrocortisone detected | hydrocortisone detected on meniscus surface (immunohistochemistry) (meniscus): detected on the tissue surface with similar intensity as with cartilage | immobilization on meniscus compared with cartilage (meniscus; hydrocortisone quantification): greater immobilization of the prodrug on the meniscal tissue
